Assay results taken from PubChem BioAssay (EPA / NIEHS).
The shares of active, inactive and inconclusive entries below differ from those in the screen. Where the call is inconclusive, the potency comes from a doubtful curve fit. Calls of active or inactive are those of the source. The calls were made as follows: active = hit-call score of the fitted dose curve at least 0.9, where 1 is the maximum; inconclusive = response in the unintended direction; inactive = score below 0.9.

By UniProt entry, the sequences of proteins in these tests, tags left out. Where a name states a change or a piece, a line headed by the entry shows the natural chain unless it says otherwise.
UniProt Q92753: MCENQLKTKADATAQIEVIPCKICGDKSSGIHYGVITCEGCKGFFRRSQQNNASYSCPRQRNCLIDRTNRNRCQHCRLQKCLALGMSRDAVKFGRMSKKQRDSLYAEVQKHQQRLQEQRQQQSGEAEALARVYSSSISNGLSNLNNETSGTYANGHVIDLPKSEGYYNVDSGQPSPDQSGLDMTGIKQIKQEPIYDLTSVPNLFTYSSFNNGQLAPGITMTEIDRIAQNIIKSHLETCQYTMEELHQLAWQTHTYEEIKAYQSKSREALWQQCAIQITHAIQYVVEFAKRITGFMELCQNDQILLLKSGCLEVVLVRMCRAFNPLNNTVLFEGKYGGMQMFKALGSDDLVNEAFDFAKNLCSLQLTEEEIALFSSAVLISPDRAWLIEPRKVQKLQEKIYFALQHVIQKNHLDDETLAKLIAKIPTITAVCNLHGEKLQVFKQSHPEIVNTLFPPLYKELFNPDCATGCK
UniProt P51449: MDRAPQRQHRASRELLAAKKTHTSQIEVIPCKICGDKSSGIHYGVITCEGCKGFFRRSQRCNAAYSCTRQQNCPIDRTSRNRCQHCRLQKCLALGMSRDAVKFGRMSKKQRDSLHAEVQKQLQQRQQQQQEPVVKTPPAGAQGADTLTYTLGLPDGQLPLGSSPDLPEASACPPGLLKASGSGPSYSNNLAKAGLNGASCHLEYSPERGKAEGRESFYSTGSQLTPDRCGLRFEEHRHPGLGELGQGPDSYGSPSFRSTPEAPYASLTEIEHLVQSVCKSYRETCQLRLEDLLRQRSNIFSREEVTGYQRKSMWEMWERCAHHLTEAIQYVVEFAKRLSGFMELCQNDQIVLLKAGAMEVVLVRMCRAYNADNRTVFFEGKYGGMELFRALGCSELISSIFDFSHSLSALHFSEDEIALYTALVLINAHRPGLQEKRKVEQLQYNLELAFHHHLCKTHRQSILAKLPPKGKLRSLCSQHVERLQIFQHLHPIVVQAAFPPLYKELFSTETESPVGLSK

target: human RAR-related Orphan Receptor beta (RORb), RORB (gene 6096) (UniProt Q92753); test: ATG_RORb_TRANS: Attagene TRANS-FACTORIAL HepG2 Assay for human RAR-related Orphan Receptor beta (RORb) (AID 2283010);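 as to AC50: potency for increased reporter mRNA meaning activation of RORb-Gal4 chimera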
Outline: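 HepG2, transient MRTU transfection (GAL4-UAS reporters, exogenous NR-Gal4 chimeras); 24 h compound exposure; total RNA → RT-PCR → 6-FAM primer extension → HpaI digest → CE fluorescence. Positive direction vs DMSO baseline.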

Structure (SMILES) | AC50 | outcome
COc1ccc([C@@H]2CC(=O)c3c(O)cc(O[C@@H]4O[C@H](CO[C@@H]5O[C@@H](C)[C@H](O)[C@@H](O)[C@H]5O)[C@@H](O)[C@H](O)[C@H]4O)cc3O2)cc1OC | inconclusive: 86 µM | 
Cc1cc(=O)oc2cc(O)ccc12 |  | inactive
Nc1ccc2cc(S(=O)(=O)O)cc(O)c2c1N=Nc1ccccc1C(F)(F)F |  | inactive
CCC=C(C)C=O |  | inactive
CC(C)Oc1ccccc1O |  | inactive
CCCCCCCCCCCCCC[n+]1ccccc1 | inconclusive: 10.4 µM | 
CCCCCCCCN1CCCC1=O | inconclusive: 100 µM | 
O=C(NCc1ncc(C(F)(F)F)cc1Cl)c1c(Cl)cccc1Cl | inconclusive: 100 µM | 
O=[N+]([O-])c1ccc(O)cc1C(F)(F)F |  | inactive
CC1=C(C=O)C(C)(C)CCC1 |  | inactive
CCN(CCO)S(=O)(=O)C(F)(F)C(F)(F)C(F)(F)C(F)(F)C(F)(F)C(F)(F)C(F)(F)C(F)(F)F | inconclusive: 274 µM | 
CC/C=C\CCOC(=O)c1ccccc1 |  | inactive
CCCCCC#CC(=O)OC |  | inactive
CCNc1ccccc1 | inconclusive: 19.8 µM | 

Structure (SMILES) | AC50 | outcome
CCCCCCCC/C=C\CCCCCCCC(=O)N(C)CC(=O)O | inconclusive: 11.1 µM | 
c1ccc(Nc2cccc3ccccc23)cc1 | inconclusive: 55 µM | 
CN(C)c1ccc(C(c2ccccc2)c2ccc(N(C)C)cc2)cc1 | inconclusive: 100 µM | 
CCc1cccc(O)c1 |  | inactive
CCOC(=O)COC(=O)c1cc(Oc2ccc(C(F)(F)F)cc2Cl)ccc1[N+](=O)[O-] | inconclusive: 100 µM | 
CCOC(=O)CC(C)O (configuration not stated) | inconclusive: 100 µM | 
O=C(Cl)C(F)(F)C(F)(F)C(F)(F)C(F)(F)C(F)(F)C(F)(F)C(F)(F)C(F)(F)F | inconclusive: 183 µM | 
C=C(C)[C@H]1CC=C(C)C(=O)C1 | inconclusive: 5.65 µM | 
CC(=O)OC/C=C(C)/C=C/C=C(C)/C=C/C1=C(C)CCCC1(C)C | inconclusive: 100 µM | 
CC(C)c1nnc2ccc(-c3ocnc3-c3cc(F)ccc3F)cn12 | inconclusive: 8.75 µM | 
O=C1NC(=O)C2CC=CCC12 (configuration not stated) | inconclusive: 100 µM | 
CC1COCc2cc3c(cc21)C(C)(C)C(C)C3(C)C (configuration not stated) | inconclusive: 161 µM | 
O=C(O)c1ccccc1Nc1cccc(C(F)(F)F)c1 | inconclusive: 100 µM | 
CCN(Cc1c(F)cccc1Cl)c1c([N+](=O)[O-])cc(C(F)(F)F)cc1[N+](=O)[O-] | inconclusive: 1.65 µM | 

target: human RAR-related Orphan Receptor gamma (RORg), RORC (gene 6097) (UniProt P51449); test: ATG_RORg_TRANS: Attagene TRANS-FACTORIAL HepG2 Assay for human RAR-related Orphan Receptor gamma (RORg) (AID 2283011);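 as to AC50: potency for induction of reporter transcripts above DMSO so activators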
Outline: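 First, HepG2 liver cells were transfected with GAL4-UAS-driven reporter constructs and the RORg-Gal4 fusion. Next, they were treated with chemical for 24 h. Finally, reporter mRNA was quantified by RT-PCR and capillary electrophoresis, with upward activity fitted against DMSO.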

Structure (SMILES) | outcome | AC50
COc1ccc([C@@H]2CC(=O)c3c(O)cc(O[C@@H]4O[C@H](CO[C@@H]5O[C@@H](C)[C@H](O)[C@@H](O)[C@H]5O)[C@@H](O)[C@H](O)[C@H]4O)cc3O2)cc1OC | inactive | 
CCC=C(C)C=O | inactive | 
CC(C)Oc1ccccc1O |  | inconclusive: 100 µM
CCCCCCCCCCCCCC[n+]1ccccc1 |  | inconclusive: 0.00914 µM
CCCCCCCCN1CCCC1=O |  | inconclusive: 138 µM
O=C(NCc1ncc(C(F)(F)F)cc1Cl)c1c(Cl)cccc1Cl |  | inconclusive: 1.81 µM
O=[N+]([O-])c1ccc(O)cc1C(F)(F)F | inactive | 
CCN(CCO)S(=O)(=O)C(F)(F)C(F)(F)C(F)(F)C(F)(F)C(F)(F)C(F)(F)C(F)(F)C(F)(F)F |  | inconclusive: 266 µM
CC/C=C\CCOC(=O)c1ccccc1 |  | inconclusive: 0.0823 µM
CCCCCC#CC(=O)OC |  | inconclusive: 50.2 µM
CCCCCCCC/C=C\CCCCCCCC(=O)N(C)CC(=O)O | inactive | 

Single entries from the list.
`CCCCCCCCN1CCCC1=O` – AC50: inconclusive: 138 µM
`CCC=C(C)C=O` – outcome: inactive
`CCCCCC#CC(=O)OC` – AC50: inconclusive: 50.2 µM

Next results:

Structure (SMILES) | outcome | AC50
CN(C)c1ccc(C(c2ccccc2)c2ccc(N(C)C)cc2)cc1 |  | inconclusive: 100 µM
CCc1cccc(O)c1 | inactive | 
CCOC(=O)COC(=O)c1cc(Oc2ccc(C(F)(F)F)cc2Cl)ccc1[N+](=O)[O-] |  | inconclusive: 100 µM
CCOC(=O)CC(C)O (configuration not stated) | inactive | 
O=C(Cl)C(F)(F)C(F)(F)C(F)(F)C(F)(F)C(F)(F)C(F)(F)C(F)(F)C(F)(F)F |  | inconclusive: 177 µM
C=C(C)[C@H]1CC=C(C)C(=O)C1 |  | inconclusive: 19.8 µM
CC(=O)OC/C=C(C)/C=C/C=C(C)/C=C/C1=C(C)CCCC1(C)C |  | inconclusive: 24.5 µM
CC(C)c1nnc2ccc(-c3ocnc3-c3cc(F)ccc3F)cn12 |  | inconclusive: 26 µM
O=C1NC(=O)C2CC=CCC12 (configuration not stated) |  | inconclusive: 100 µM
CC1COCc2cc3c(cc21)C(C)(C)C(C)C3(C)C (configuration not stated) |  | inconclusive: 44.3 µM
O=C(O)c1ccccc1Nc1cccc(C(F)(F)F)c1 |  | inconclusive: 100 µM
CCN(Cc1c(F)cccc1Cl)c1c([N+](=O)[O-])cc(C(F)(F)F)cc1[N+](=O)[O-] | inactive | 
